The test addresses GFP-SYP121 (Arabidopsis thaliana) (UniProt Q9ZSD4). Kind of test: co-IP.

Sequences of proteins named here, by UniProt entry; tags and fusion partners are left off.
UniProt Q9ZSD4, whole entry: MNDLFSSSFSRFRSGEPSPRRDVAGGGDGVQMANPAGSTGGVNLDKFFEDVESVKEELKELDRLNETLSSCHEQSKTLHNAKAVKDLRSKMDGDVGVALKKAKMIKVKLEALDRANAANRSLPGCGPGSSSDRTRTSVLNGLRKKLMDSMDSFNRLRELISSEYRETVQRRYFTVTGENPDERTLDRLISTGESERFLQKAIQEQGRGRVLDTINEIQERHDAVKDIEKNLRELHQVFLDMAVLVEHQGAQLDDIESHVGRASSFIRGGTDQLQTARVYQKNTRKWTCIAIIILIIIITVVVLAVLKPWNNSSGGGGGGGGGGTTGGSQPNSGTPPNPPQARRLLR
UniProt Q94AI6, whole entry: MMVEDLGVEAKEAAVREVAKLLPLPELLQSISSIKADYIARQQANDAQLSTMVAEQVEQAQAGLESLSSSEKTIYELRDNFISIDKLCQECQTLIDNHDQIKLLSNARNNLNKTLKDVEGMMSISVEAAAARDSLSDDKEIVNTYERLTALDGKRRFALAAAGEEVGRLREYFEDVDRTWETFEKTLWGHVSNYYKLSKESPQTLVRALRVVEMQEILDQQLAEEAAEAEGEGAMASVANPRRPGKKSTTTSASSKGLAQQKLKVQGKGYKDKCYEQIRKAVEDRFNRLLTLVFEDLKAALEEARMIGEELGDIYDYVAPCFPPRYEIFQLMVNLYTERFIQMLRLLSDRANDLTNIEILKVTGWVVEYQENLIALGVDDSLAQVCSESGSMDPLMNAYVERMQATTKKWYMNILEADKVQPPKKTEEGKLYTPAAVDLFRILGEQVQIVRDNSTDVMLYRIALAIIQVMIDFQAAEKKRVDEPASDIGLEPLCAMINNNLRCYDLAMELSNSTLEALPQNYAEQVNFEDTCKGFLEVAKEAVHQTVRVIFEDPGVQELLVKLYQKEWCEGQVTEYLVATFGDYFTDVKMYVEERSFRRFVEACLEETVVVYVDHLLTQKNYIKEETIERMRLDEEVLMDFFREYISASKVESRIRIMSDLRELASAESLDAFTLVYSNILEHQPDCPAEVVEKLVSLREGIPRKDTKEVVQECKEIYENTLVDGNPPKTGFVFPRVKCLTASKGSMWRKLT

These are yes or no findings as the source states them, for the method shown. Binding seen in cells or lysates may run through a third protein. Some binding calls cover weakened binding; strength is not graded here.

For SEC6 (from UniProt Q94AI6 1-752), the binding result was “binds”.

Values taken from doi:10.1101/2021.06.20.449050.
